Test results from paper PMC7642682, “SPOR Proteins Are Required for Functionality of Class A Penicillin-Binding Proteins in Escherichia coli” (mBio, 2020).
These are yes or no findings as the source states them, for the method shown. Binding seen in cells or lysates may run through a third protein. Some entries that bind do so weakly or less than the wild type. Tags and fused reporters may be left off the sequences shown.

Assays:
[1] = target: T1, His-DamX (Escherichia coli) (UniProt P11557); assay: pull-down; protein couples coexpressed in E. coli C43(DE3) from pETDuet; membranes solubilized with 40 mM DDM; HisTrap (nickel) column in 25 mM Tris-HCl pH 7.5, 500 mM NaCl, 4 mM DDM; wash with 80 mM imidazole, elution with 80 to 500 mM imidazole; N-terminal His tag on the SPOR protein as bait; PBPs detected in fractions by Bocillin FL, SDS-PAGE, fluorescence imaging and Coomassie staining
T1 sequence: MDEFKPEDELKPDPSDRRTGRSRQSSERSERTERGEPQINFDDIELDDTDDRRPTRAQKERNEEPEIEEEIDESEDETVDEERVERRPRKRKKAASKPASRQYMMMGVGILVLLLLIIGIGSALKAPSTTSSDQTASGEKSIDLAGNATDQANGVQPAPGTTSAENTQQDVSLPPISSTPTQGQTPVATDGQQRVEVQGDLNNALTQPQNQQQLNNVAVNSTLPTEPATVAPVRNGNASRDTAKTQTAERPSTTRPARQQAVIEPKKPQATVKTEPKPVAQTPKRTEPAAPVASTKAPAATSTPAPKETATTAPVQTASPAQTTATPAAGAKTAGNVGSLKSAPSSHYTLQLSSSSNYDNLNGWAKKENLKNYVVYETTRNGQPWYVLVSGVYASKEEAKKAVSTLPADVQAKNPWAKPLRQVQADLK

[2] = target: T2, His-DedD (Escherichia coli) (UniProt P09549); assay: as above
T2 sequence: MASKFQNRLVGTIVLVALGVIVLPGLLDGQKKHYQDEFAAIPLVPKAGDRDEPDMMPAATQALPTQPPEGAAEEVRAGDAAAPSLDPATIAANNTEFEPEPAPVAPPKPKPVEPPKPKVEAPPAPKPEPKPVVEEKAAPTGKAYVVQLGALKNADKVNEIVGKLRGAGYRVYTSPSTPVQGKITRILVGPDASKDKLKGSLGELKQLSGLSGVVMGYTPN

Row | Binder | binding [1] | binding [2]
1 | penicillin-binding protein 1B (PBP1B) (enzyme, UniProt P02919 1-844) MAGNDREPIGRKGKPTRPVKQKVSRRRYEDDDDYDDYDDYEDEEPMPRKGKGKGKGRKPRGKRGWLWLLLKLAIVFAVLIAIYGVYLDQKIRSRIDGKVWQLPAAVYGRMVNLEPDMTISKNEMVKLLEATQYRQVSKMTRPGEFTVQANSIEMIRRPFDFPDSKEGQVRARLTFDGDHLATIVNMENNRQFGFFRLDPRLITMISSPNGEQRLFVPRSGFPDLLVDTLLATEDRHFYEHDGISLYSIGRAVLANLTAGRTVQGASTLTQQLVKNLFLSSERSYWRKANEAYMALIMDARYSKDRILELYMNEVYLGQSGDNEIRGFPLASLYYFGRPVEELSLDQQALLVGMVKGASIYNPWRNPKLALERRNLVLRLLQQQQIIDQELYDMLSARPLGVQPRGGVISPQPAFMQLVRQELQAKLGDKVKDLSGVKIFTTFDSVAQDAAEKAAVEGIPALKKQRKLSDLETAIVVVDRFSGEVRAMVGGSEPQFAGYNRAMQARRSIGSLAKPATYLTALSQPKIYRLNTWIADAPIALRQPNGQVWSPQNDDRRYSESGRVMLVDALTRSMNVPTVNLGMALGLPAVTETWIKLGVPKDQLHPVPAMLLGALNLTPIEVAQAFQTIASGGNRAPLSALRSVIAEDGKVLYQSFPQAERAVPAQAAYLTLWTMQQVVQRGTGRQLGAKYPNLHLAGKTGTTNNNVDTWFAGIDGSTVTITWVGRDNNQPTKLYGASGAMSIYQRYLANQTPTPLNLVPPEDIADMGVDYDGNFVCSGGMRILPVWTSDPQSLCQQSEMQQQPSGNPFDQSSQPQQQPQQQPAQQEQKDSDGVAGWIKDMFGSN | binds | binds
2 | penicillin-binding protein 1A (PBP1A) (enzyme, UniProt P02918 1-850) MKFVKYFLILAVCCILLGAGSIYGLYRYIEPQLPDVATLKDVRLQIPMQIYSADGELIAQYGEKRRIPVTLDQIPPEMVKAFIATEDSRFYEHHGVDPVGIFRAASVALFSGHASQGASTITQQLARNFFLSPERTLMRKIKEVFLAIRIEQLLTKDEILELYLNKIYLGYRAYGVGAAAQVYFGKTVDQLTLNEMAVIAGLPKAPSTFNPLYSMDRAVARRNVVLSRMLDEGYITQQQFDQTRTEAINANYHAPEIAFSAPYLSEMVRQEMYNRYGESAYEDGYRIYTTITRKVQQAAQQAVRNNVLDYDMRHGYRGPANVLWKVGESAWDNNKITDTLKALPTYGPLLPAAVTSANPQQATAMLADGSTVALSMEGVRWARPYRSDTQQGPTPRKVTDVLQTGQQIWVRQVGDAWWLAQVPEVNSALVSINPQNGAVMALVGGFDFNQSKFNRATQALRQVGSNIKPFLYTAAMDKGLTLASMLNDVPISRWDASAGSDWQPKNSPPQYAGPIRLRQGLGQSKNVVMVRAMRAMGVDYAAEYLQRFGFPAQNIVHTESLALGSASFTPMQVARGYAVMANGGFLVDPWFISKIENDQGGVIFEAKPKVACPECDIPVIYGDTQKSNVLENNDVEDVAISREQQNVSVPMPQLEQANQALVAKTGAQEYAPHVINTPLAFLIKSALNTNIFGEPGWQGTGWRAGRDLQRRDIGGKTGTTNSSKDAWFSGYGPGVVTSVWIGFDDHRRNLGHTTASGAIKDQISGYEGGAKSAQPAWDAYMKAVLEGVPEQPLTPPPGIVTVNIDRSTGQLANGGNSREEYFIEGTQPTQQAVHEVGTTIIDNGEAQELF | – | binds
